{"sequences": {"note": "Amino acid sequences for entries named in this document (tags omitted).", "UniProt Q96KP1": "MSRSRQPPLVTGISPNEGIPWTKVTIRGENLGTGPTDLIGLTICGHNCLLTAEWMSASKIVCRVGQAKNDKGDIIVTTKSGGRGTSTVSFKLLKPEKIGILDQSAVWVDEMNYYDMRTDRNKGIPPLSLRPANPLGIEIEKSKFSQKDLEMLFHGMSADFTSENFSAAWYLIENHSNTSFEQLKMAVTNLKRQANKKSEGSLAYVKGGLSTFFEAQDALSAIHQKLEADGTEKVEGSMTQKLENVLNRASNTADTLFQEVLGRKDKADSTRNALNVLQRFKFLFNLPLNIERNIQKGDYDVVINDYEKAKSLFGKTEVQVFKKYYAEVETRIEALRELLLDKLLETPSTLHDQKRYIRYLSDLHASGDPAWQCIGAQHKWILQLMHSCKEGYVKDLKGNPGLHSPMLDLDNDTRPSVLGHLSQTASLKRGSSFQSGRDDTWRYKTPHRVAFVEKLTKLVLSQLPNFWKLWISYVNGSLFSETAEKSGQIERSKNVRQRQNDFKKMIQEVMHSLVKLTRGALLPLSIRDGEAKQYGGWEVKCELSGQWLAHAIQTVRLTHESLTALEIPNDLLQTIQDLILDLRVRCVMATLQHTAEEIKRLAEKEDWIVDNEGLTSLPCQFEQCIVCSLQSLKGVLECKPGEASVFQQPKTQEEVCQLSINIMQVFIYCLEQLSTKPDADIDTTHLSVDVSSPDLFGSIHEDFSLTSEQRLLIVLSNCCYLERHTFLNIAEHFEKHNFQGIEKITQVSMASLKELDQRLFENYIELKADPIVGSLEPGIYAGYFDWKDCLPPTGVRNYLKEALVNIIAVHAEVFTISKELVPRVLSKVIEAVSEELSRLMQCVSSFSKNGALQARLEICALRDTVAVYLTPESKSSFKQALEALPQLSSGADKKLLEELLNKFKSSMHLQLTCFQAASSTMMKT"}, "source": "paper doi:10.1101/2025.06.13.659557", "target": "T1, mCherry-RalB (UniProt P11234)", "T1 sequence": "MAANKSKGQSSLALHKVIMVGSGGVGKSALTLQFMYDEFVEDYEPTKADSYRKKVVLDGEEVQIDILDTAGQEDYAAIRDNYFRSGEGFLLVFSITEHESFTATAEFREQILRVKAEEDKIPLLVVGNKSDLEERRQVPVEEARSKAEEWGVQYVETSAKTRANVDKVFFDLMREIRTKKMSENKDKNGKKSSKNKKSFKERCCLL", "assay": "co-IP", "note": "Results are given in words; binding and its absence hold for the method and conditions named. In cells and extracts the contact can be indirect. Some entries that bind do so weakly or less than the wild type."}
{"substance": "Sec5-NanoLuc (from UniProt Q96KP1 1-924)", "values": [{"measurement": "binding", "value": "binds"}]}
